How the values were obtained:
C57Bl/6 mice = conditions: male, mouse, in vivo
Description: FIGS. 5A-D. Mouse MI model. Representative mouse EKG tracings pre (FIG. 5A) and post (FIG. 5B) coronary artery ligation. […] Arrows mark lateral and posterior left ventricle (LV). LVIDD, LVIDS=LV internal diameter at systole and […], respectively. RV=right ventricle. […] Cardiac dimensions were obtained from 2-D guided M-mode images (100 frames/sec) and were read blinded using short axis and a parasternal long-axis views with the leading edge method. All echo measurements were averaged over 3 consecutive beats on unsedated mice at 7 and 30 days after infarction. Statistical significance assessed by the Wilcoxon rank sum test.
Ventricular remodeling and cardiac functional parameters will be assessed by echo.
Mammalian cardiomyocytes irreversibly withdraw from the cell cycle soon after birth and undergo terminal differentiation. […] Therefore, cardiac injury causes permanent myocardial loss and cardiac dysfunction. […] Proliferation was assessed by immunostaining for Ki-67.

mice = conditions: levels high enough to achieve Wnt-inhibitory plasma levels

With `Cc1cc(/C=C/c2ccc3cc(N(C)C)ccc3[n+]2C)c(C)n1-c1ccccc1` [pyrvinium, 6-(Dimethylamino)-2-[2-(2,5-dimethyl-1-phenyl-1H-pyrrol-3-yl)ethenyl]-1-methylquinolinium] the “mice with lethal toxicity, died within the first 24 hours” value (C57Bl/6 mice) was 15 and the “toxicity after IV or IP injection” value (mice) was “death within 24-48 hours in most mice”.

Reference: patent US20120318262A1 (priority 2011, published 2012)
